Test results as given in US20230295119A1, “SUBSTITUTED PYRIDINES FOR THE TREATMENT OF INFLAMMATORY DISEASES” (GOSSAMER BIO SERVICES, INC., priority 2020, published 2023).
Like-named read-outs stand apart in the source and are kept apart here. The match of structure and compound is tentative.

The chains behind the UniProt entries cited, without tags or fusion partners. Residues count along the entry.
UniProt P23458, whole entry: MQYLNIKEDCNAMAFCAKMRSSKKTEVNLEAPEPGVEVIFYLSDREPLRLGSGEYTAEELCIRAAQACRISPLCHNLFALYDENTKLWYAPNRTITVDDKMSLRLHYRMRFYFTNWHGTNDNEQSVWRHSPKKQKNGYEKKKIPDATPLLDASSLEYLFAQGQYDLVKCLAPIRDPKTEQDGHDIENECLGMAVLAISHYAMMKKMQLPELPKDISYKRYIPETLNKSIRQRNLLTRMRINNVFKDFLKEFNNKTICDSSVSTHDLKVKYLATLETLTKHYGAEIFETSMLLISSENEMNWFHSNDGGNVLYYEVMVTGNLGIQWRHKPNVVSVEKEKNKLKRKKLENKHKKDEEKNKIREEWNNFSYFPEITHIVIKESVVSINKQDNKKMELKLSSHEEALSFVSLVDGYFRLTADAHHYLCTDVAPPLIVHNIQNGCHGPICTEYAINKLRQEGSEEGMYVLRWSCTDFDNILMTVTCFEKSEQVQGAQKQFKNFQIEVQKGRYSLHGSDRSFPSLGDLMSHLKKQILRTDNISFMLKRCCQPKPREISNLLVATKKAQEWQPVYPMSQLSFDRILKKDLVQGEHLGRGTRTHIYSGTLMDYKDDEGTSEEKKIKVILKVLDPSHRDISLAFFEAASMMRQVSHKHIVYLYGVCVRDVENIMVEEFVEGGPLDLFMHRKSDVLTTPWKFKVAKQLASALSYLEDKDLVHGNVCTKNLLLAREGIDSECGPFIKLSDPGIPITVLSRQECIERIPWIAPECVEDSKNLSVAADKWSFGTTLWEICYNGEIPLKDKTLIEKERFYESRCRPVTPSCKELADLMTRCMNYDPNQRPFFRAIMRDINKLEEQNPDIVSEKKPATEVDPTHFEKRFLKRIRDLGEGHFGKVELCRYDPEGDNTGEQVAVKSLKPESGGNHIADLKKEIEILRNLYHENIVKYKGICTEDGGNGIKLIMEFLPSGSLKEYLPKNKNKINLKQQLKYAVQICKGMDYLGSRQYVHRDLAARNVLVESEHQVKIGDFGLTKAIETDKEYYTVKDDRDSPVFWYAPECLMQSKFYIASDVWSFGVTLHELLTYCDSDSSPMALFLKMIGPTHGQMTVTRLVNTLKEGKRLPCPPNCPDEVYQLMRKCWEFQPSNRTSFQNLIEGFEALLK
UniProt P52333, whole entry: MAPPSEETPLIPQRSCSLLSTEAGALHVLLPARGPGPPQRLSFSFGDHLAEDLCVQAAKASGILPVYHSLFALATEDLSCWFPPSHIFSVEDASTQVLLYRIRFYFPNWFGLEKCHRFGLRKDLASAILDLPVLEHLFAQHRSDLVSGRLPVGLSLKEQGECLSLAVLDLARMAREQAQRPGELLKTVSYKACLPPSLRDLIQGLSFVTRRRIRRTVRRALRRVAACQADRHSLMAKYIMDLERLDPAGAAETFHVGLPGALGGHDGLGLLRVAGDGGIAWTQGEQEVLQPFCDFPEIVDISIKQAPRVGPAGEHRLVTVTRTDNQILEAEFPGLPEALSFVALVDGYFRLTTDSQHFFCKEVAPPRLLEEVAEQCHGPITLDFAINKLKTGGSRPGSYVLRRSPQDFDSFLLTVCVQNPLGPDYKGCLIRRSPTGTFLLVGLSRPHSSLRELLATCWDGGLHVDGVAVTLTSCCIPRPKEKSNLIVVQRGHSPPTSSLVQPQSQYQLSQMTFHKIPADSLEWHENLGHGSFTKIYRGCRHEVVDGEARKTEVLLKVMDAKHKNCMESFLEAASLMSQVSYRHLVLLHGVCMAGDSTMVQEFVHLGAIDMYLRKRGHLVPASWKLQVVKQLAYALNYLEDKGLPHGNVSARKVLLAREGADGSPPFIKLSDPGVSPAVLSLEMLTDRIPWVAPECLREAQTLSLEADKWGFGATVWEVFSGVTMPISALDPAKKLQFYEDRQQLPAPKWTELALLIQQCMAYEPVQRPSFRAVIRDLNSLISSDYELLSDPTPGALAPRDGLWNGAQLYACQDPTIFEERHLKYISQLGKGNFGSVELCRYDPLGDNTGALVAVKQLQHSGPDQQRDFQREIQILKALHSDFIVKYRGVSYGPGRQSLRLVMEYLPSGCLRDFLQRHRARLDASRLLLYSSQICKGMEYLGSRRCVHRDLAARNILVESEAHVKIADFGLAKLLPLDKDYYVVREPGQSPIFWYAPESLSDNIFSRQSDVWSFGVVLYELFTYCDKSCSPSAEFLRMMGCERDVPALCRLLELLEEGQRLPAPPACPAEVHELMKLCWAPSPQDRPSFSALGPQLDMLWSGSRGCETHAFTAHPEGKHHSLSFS
UniProt P29597, 589-875 limits assumed: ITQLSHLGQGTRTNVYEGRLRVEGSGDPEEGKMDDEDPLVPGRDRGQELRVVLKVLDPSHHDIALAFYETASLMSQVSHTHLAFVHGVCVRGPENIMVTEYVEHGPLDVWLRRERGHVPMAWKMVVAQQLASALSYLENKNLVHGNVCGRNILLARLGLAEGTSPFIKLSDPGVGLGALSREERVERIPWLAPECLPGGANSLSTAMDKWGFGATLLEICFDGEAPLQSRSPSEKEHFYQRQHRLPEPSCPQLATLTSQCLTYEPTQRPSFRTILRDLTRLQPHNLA
UniProt O60674, whole entry: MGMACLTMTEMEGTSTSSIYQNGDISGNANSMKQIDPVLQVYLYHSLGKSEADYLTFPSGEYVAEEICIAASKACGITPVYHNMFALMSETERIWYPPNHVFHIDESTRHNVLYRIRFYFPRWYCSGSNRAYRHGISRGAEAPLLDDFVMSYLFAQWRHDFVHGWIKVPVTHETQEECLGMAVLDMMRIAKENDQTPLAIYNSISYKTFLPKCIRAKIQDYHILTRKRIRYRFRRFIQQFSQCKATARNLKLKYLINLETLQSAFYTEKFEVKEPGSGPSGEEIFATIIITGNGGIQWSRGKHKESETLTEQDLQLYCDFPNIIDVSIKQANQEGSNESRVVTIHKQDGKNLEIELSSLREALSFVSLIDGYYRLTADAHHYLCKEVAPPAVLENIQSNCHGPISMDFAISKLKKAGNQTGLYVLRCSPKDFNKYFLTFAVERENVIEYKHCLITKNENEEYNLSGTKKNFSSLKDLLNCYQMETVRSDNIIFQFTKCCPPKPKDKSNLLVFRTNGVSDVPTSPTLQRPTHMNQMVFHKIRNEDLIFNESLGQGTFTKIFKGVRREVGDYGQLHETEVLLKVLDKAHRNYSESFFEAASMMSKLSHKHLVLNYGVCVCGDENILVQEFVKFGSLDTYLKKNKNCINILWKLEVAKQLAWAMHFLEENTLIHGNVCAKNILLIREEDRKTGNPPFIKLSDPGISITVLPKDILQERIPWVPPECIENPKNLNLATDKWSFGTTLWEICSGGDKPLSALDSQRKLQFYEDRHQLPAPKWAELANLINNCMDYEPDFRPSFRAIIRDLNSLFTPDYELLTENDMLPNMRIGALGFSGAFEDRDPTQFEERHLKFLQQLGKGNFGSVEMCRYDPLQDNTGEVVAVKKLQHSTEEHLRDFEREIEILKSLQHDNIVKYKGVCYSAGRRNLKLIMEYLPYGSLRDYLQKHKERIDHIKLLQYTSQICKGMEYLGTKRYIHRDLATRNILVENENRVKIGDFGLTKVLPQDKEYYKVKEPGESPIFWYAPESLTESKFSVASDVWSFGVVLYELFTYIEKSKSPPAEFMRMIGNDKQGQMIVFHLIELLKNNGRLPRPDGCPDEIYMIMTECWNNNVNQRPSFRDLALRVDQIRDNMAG

How the values were obtained:
human JAK1 = human JAK1 (Homo sapiens (Human), UniProt P23458); experiment: JAK1 TR-FRET kinase assay; details: read-out: JAK1 IC50, JAK1 2.5 nM
human JAK3 = human JAK3 (Homo sapiens (Human), UniProt P52333); experiment: JAK3 TR-FRET kinase assay; details: read-out: JAK3 IC50, JAK3 0.0125 nM
TYK2 JH2 domain = TYK2 JH2 domain (Homo sapiens (Human), UniProt P29597); experiment: TYK2 JH2 NanoBRET assay; type: binding
human JAK2 = human JAK2 (Homo sapiens (Human), UniProt O60674); experiment: JAK2 TR-FRET kinase assay; details: read-out: JAK2 IC50, JAK2 0.025 nM

Question: What does the source list for `CCC(=O)c1cnc(NC(=O)[C@@H]2C[C@@H]2C(=O)O)cc1Nc1cccc(-c2ncn(C)n2)c1OC`?
Answer: IC50 (human JAK1): > 500 nM; IC50 (human JAK3): > 500 nM; IC50 (TYK2 JH2 domain; read-out: TYK2 IC50, Table 20): > 500 nM; IC50 (human JAK2): > 500 nM

Question: For `COc1c(Nc2cc(Nc3ccc(F)cn3)ncc2CO)cccc1-c1ncn(C)n1`, which IC50 (TYK2 JH2 domain; read-out: IC50 (nM), TYK2 activity, HEK293T cells, Table 19) is on record?
Answer: Its IC50 is > 500 nM.
